Assay results: US20050196362A1, “Personal care compositions containing highly branched primary alcohol component” (priority 2004, published 2005)
At least one compound was matched to its structure with a doubt left.

Assay: Solubility profile of branched emollient alcohols in cosmetic solvents
Assay type: physicochemical

Measured: Solubility

CCCCCCCCC(CO)CCCCCC (stereo not drawn) [Guerbet C16 Branched]
−: Castor Oil (90%), @ 25° C. | Castor Oil (90%), @ 50° C. | Dc 200-100-Dimethicone (90%), @ 25° C. | Dc 200-100-Dimethicone (90%), @ 50° C. | Glycerin (96%), @ 25° C. | Glycerin (96%), @ 50° C.
